Reference: PubChem BioAssay AID1347131 (National Center for Advancing Translational Sciences (NCATS), 2019)
Out of some 410,000 compounds screened, about 2,000 (0.49%) were called active. This list was built around the results that the source calls inconclusive (neither active nor inactive); the mix of calls is not that of the screen. Calls follow the shape of the full dose curve; tested in HEK293 reporter line. Potencies of inconclusive entries are doubtful fits and often do not repeat.

test: qHTS Assay for Foot and Mouth Disease Virus Antivirals: Primary Screen against the MLPCN compound library; details: FMDV antiviral cell-based qHTS; activity, negative = inhibition: at 57.9 µM (top of the series); also: nearly all actives have a fitted effect of over 55% in size
Potency is read from the fitted curve at half-maximal effect.

Row | Structure (SMILES) | Potency | activity, negative = inhibition
1 | Cc1ncsc1C(=O)N1CCCC(C(=O)c2ccc3ccccc3c2)C1 (stereo unspecified) | inconclusive: 28.2 µM [inhibitor, partial curve, poor fit] | 
2 | CCCCCn1c(SCCC(C)C)nc2c1c(=O)[nH]c(=O)n2C | inconclusive: 39.8 µM [inhibitor, partial curve, poor fit] | 
3 | COc1cc(OC)c(NC(=O)c2ccc3nc(C(C)C)oc3c2)cc1Cl | inconclusive: 12.6 µM [inhibitor, partial curve, poor fit] | 
4 | O=C(Nc1ccc(N2CCOCC2)c(Cl)c1)c1ccco1 | inconclusive: 39.8 µM [inhibitor, single point] | 
5 | O=C(CSc1nc(-c2ccccc2)c(-c2ccccc2)[nH]1)NCc1ccco1 | inconclusive: 39.8 µM [inhibitor, partial curve, poor fit] | 
6 | Cc1ccc(-c2c(C(=O)N3CCN(c4cccc(C)c4C)CC3)oc(=O)c3ccccc23)cc1 | inconclusive: 25.1 µM [inhibitor, partial curve, poor fit] | 
7 | COc1cc(OC)cc(-c2nc(SCC(=O)Nc3ccccc3F)n[nH]2)c1 | inconclusive: 10 µM [inhibitor, partial curve] | 
8 | O=C1NC(=S)N(c2ccccc2)C(=O)/C1=C/c1ccco1 | inconclusive: 35.5 µM [inhibitor, single point] | 
9 | C[C@H](CO)N1C[C@H](C)[C@@H](CN(C)C(=O)NC2CCCCC2)Oc2c(NS(=O)(=O)c3cccs3)cccc2C1=O |  | inactive: 104%
10 | CC(Oc1ccc(Cl)cc1)C(=O)NCCN1C(=O)S/C(=C\c2cccnc2)C1=O (stereo unspecified) | inconclusive: 39.8 µM [inhibitor, partial curve, poor fit] | 
11 | O=c1[nH]c(SCc2nc3ccccc3c(=O)n2-c2ccccc2C(F)(F)F)nc2ccccc12 | inconclusive: 17.8 µM [inhibitor, partial curve, poor fit] | 
12 | O=S(=O)(Nc1cccc2ncccc12)c1cccs1 | inconclusive: 20 µM [inhibitor, partial curve, poor fit] | 
13 | CCN1C[C@@H]2[C@@H]3C(=O)N(C)C(=O)[C@@H]3[C@](Cc3ccccc3)(C1=O)N2C(=O)c1ccc(C(C)(C)C)cc1 | inconclusive: 3.98 µM [inhibitor, partial curve] | 
14 | O=C(OCc1ccccc1)c1ccc(NCc2cc(O)ccc2O)cc1 | inconclusive: 10 µM [inhibitor, partial curve, poor fit] | 
15 | Cn1c(=O)oc2cc(S(=O)(=O)N3CCCC(C(=O)NCC4COc5ccccc5O4)C3)ccc21 (stereo unspecified) | inconclusive: 39.8 µM [inhibitor, single point] | 
16 | Cc1nc2nc(-c3ccc(Cl)cc3)cn2nc1C | active: 10 µM | 
17 | Cc1cc(OCc2nc(N)nc(N)c2-c2ccc(Cl)c(Cl)c2)ccc1[N+](=O)[O-] | inconclusive: 25.1 µM [inhibitor, partial curve, poor fit] | 
18 | Cc1ccc(-n2nnnc2-c2cnc(-c3cccnc3)nc2C(F)(F)F)cc1 | inconclusive: 22.4 µM [inhibitor, partial curve, poor fit] | 
19 | O=C(NCCc1cccc(Cl)c1)c1ccc(OC2CCN(Cc3ccccn3)CC2)cc1 | inconclusive: 28.2 µM [inhibitor, partial curve, poor fit] | 

Structural class: the entries above containing two or more sulfur atoms
Row | Structure (SMILES) | Potency | activity, negative = inhibition
9 | C[C@H](CO)N1C[C@H](C)[C@@H](CN(C)C(=O)NC2CCCCC2)Oc2c(NS(=O)(=O)c3cccs3)cccc2C1=O |  | inactive: 104%
12 | O=S(=O)(Nc1cccc2ncccc12)c1cccs1 | inconclusive: 20 µM [inhibitor, partial curve, poor fit] | 

Remaining list, next part.

Row | Structure (SMILES) | Potency | activity, negative = inhibition
20 | COc1ccc(-c2nn(-c3ccccc3)cc2/C=N/O)cc1 | inconclusive: 14.1 µM [inhibitor, partial curve, poor fit] | 
21 | CCOC(=O)Cn1nc(C)c(NC(=O)COc2cccc(Cl)c2)c1C | inconclusive: 14.1 µM [inhibitor, partial curve, poor fit] | 
22 | CS(=O)(=O)Nc1ccc(C2=NN(C(=O)C3CCCCC3)C(c3cccs3)C2)cc1 (stereo unspecified) | inconclusive: 20 µM [inhibitor, partial curve, poor fit] | 
23 | CN1C(=O)C(C)(C)c2cc(S(=O)(=O)NCc3ccc(C(=O)Nc4ccc(Cl)cc4)cc3)ccc21 | inconclusive: 31.6 µM [inhibitor, partial curve, poor fit] | 
24 | O=C(/C=C/c1ccco1)Nc1ccc(Cl)c(S(=O)(=O)N2CCOCC2)c1 | inconclusive: 22.4 µM [inhibitor, partial curve, poor fit] | 
25 | N#CC(C#N)=C1C=CC=CN1/C(=C\c1ccco1)C(=O)c1ccc(-c2ccccc2)cc1 | inconclusive: 14.1 µM [inhibitor, partial curve, poor fit] | 
26 | C[C@@H]1O[C@@H](O[C@H]2C[C@@H](O)[C@]3(CO)[C@H]4[C@H](O)C[C@]5(C)[C@@H](C6=CC(=O)OC6)CC[C@]5(O)[C@@H]4CC[C@]3(O)C2)[C@H](O)[C@H](O)[C@H]1O | inconclusive: 0.708 µM [inhibitor, full curve, poor fit] | 
27 | CC(C)N1C(=O)/C(=C\c2nc3ccccc3c(=O)[nH]2)c2ccccc21 | inconclusive: 39.8 µM [inhibitor, partial curve, poor fit] | 
28 | Cc1nc2cc(-c3ccsc3-n3c(C)ccc3C)[nH]n2c(=O)c1Cl | inconclusive: 31.6 µM [inhibitor, partial curve, poor fit] | 
29 | O=C(CCl)Nc1ccccc1Sc1ccc(Cl)cc1 | inconclusive: 31.6 µM [inhibitor, single point] | 
30 | COc1cc(NC(=O)COc2cc(O)c3c(c2)OC(C)(C)CC3=O)cc(OC)c1OC | inconclusive: 3.98 µM [inhibitor, partial curve, poor fit] | 
31 | CCC(C)Sc1cc(-c2nc3ccc(C)cn3c2NCc2ccccc2)ccc1OC (stereo unspecified) | inconclusive: 15.8 µM [inhibitor, partial curve, poor fit] | 
32 | CC1CCCCN1CC(=O)Nc1sccc1C#N (stereo unspecified) | inconclusive: 2.82 µM [inhibitor, full curve] | 
33 | CC(C)C[C@H]1CN=C(N(C)C)N1CCCCc1ccccc1 |  | inactive: -30.1%
34 | O=C(CC(c1ccccc1)c1ccccc1)Nc1ccc(Cl)cn1 |  | inconclusive: -41.6% [inhibitor]
35 | CCN(CC)c1ccc(/C=N/NC(=O)c2ccoc2C)c(O)c1 | inconclusive: 10 µM [inhibitor, partial curve] | 
36 | COc1ccc(C(=O)Nc2ccc3ccccc3n2)c(OC)c1OC | inconclusive: 15.8 µM [inhibitor, single point] | 
37 | C=C(C)C(=O)OCC(O)COc1ccc(C(C)(C)c2ccc(OCC(O)COC(=O)C(=C)C)cc2)cc1 (stereo unspecified) | inconclusive: 39.8 µM [inhibitor, partial curve, poor fit] | 
38 | CC(C)N(C(=O)CSc1nnc(CSc2ncccn2)n1C)C(C)C | inconclusive: 3.55 µM [inhibitor, full curve] | 

Row | Structure (SMILES) | Potency | activity, negative = inhibition
39 | O=C(Nc1sc2c(c1C(=O)NCc1ccco1)CCCC2)c1cc(=O)c2ccccc2o1 | inconclusive: 28.2 µM [inhibitor, partial curve, poor fit] | 
40 | O=C1CC(c2ccc3c(c2)OCO3)Sc2nc3ccccc3n21 (stereo unspecified) | inconclusive: 17.8 µM [inhibitor, partial curve, poor fit] | 
41 | Cc1ccc(-c2nn(-c3ccccc3)cc2C=C2C(=O)CC(C)(C)CC2=O)cc1 | inconclusive: 39.8 µM [inhibitor, single point] | 
42 | CCn1c(/C=C/c2cccc([N+](=O)[O-])c2)nc2ccccc2c1=O | inconclusive: 14.1 µM [inhibitor, partial curve] | 
43 | COc1ccc(C(=O)/C=C/Nc2ccccn2)cc1 | inconclusive: 8.91 µM [inhibitor, full curve, poor fit] | 
44 | CCOC(=O)CCc1ccc(NC(=O)/C=C/c2ccc([N+](=O)[O-])o2)cc1 | inconclusive: 25.1 µM [inhibitor, partial curve, poor fit] | 
45 | Cc1ccc(N(C(=O)CCl)C(C(=O)NC2CCCCC2)c2cccnc2)cc1C (stereo unspecified) | inconclusive: 7.94 µM [inhibitor, full curve, poor fit] | 
46 | O=C(NC1=NC2CCCCC2N1)c1ccccc1 (stereo unspecified) | inconclusive: 12.6 µM [inhibitor, partial curve, poor fit] | 
47 | COc1ccccc1N1CCN(CC(O)COc2ccc(C)cc2C(C)(C)C)CC1 (stereo unspecified) | inconclusive: 35.5 µM [inhibitor, partial curve, poor fit] | 
48 | COc1ccc(CNc2ccc(S(=O)(=O)N3CCN(C)CC3)cn2)cc1OC | inconclusive: 25.1 µM [inhibitor, partial curve, poor fit] | 
49 | CCN(C(=O)COc1cc(=O)n(C)c2ccccc12)c1cccc(Cl)c1 | inconclusive: 22.4 µM [inhibitor, partial curve, poor fit] | 
50 | CCCCCCCCCn1ccc(=N)cc1 | inconclusive: 20 µM [inhibitor, partial curve, poor fit] | 
51 | CCCN(C(=O)c1cc2c(=O)oc3ccccc3c2s1)c1ccccc1C | inconclusive: 39.8 µM [inhibitor, partial curve, poor fit] | 
52 | CCOc1ccccc1O[C@H](c1ccccc1)[C@H]1CNCCO1 |  | inconclusive: -31.6% [inhibitor]
53 | CCCOC(=O)C1=C(C)NC(=O)NC1c1cc2c(cc1Br)OCO2 (stereo unspecified) | inconclusive: 15.8 µM [inhibitor, partial curve] | 
54 | CC1(C)C(c2ccccc2)=NC(c2ccc(Br)cc2)N1O (stereo unspecified) | inconclusive: 3.98 µM [inhibitor, partial curve, poor fit] | 
55 | Cc1ccccc1OCc1nnc(SCC(=O)Nc2c(C)n(C)n(-c3ccccc3)c2=O)n1-c1ccccc1 |  | inactive: -43.3%
56 | COc1cccc(NC(=O)c2cc3ccccc3oc2=O)c1 | active: 20 µM | 
